PubChem BioAssay AID504791, Drosophila RNAi Screening Center, 2011

- Assay: 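Genes whose knock-down strengthens or weakens small-RNA reporter silencing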 (primary screen)
- System: Drosophila S2-derived reporter cells
- Knock-down reagent: long dsRNA against Drosophila genes, about 150-250 ng dsRNA per well (siRNA assay); about 80-120 ng (miRNA assay)
- Time to read-out: about 5 days (siRNA assay); about 4 days (miRNA assay)
- Treatment: copper sulfate induction of reporters: 25 µM (siRNA assay); 200 mM stated (miRNA assay), 1-2 days before reading
- Measurement: 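Per-well ratio of Renilla over firefly light, expressed relative to that plate's average ratio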
- Call rule: 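a well was a first-pass pick when its plate-scaled ratio rose above 1.5 (siRNA assay) or 1.6 (miRNA assay), or dropped below 0.6; a gene counted only if two separate dsRNAs agreed on retest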
In all, the deposit lists about 23,000 reagents; shown is an unselected part of those that have a named target and a result. Over the whole deposit, 199 (0.86%) are marked active. 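Plate-scaled ratios behind the calls are not deposited; printed light signals are raw; many rows marked increased or decreased are still called inactive.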 The numbers tell different reagents against one gene apart. A plus sign joins genes that one reagent is predicted to hit. Not stated in the record: the direction of the score.

gene | reagent no. | stable siRNA reporter change | miRNA reporter change | stable assay Renilla, run 1 (luminescence) | stable assay firefly, run 1 (luminescence) | outcome
dor (deep orange) | 1 | – | – | 6991 | 4.48e5 | inactive
CG33232 (retired record) | 1 | – | – | 9163 | 3.06e5 | inactive
CG33232 (retired record) | 2 | – | – | 4691 | 3.41e5 | inactive
Gr93c (Gustatory receptor 93c) | 1 | – | – | 7289 | 3.79e5 | inactive
nxf4 (nuclear export factor 4) | 1 | – | – | 6876 | 4.71e5 | inactive
Als2 (Amyotrophic lateral sclerosis 2) | 1 | – | – | 8326 | 2.78e5 | inactive
CR33328 (retired record) | 1 | – | – | 4015 | 3.79e5 | inactive
Fs(2)Ket (Female sterile (2) Ketel) | 1 | – | – | 13442 | 5.26e5 | inactive
Kdm5 (Lysine demethylase 5) | 1 | – | – | 20722 | 4.43e5 | inactive
CG12464 | 1 | – | – | 6100 | 2.90e5 | inactive
Wbp2 (WW domain binding protein 2) | 1 | – | – | 6834 | 3.30e5 | inactive
lncRNA:iab4 (long non-coding RNA:iab4) | 1 | – | – | 9321 | 5.51e5 | inactive
CG8611 | 1 | – | – | 8407 | 4.90e5 | inactive
CG30095 | 1 | – | – | 7110 | 3.86e5 | inactive
CG32816 | 1 | – | – | 7707 | 3.63e5 | inactive
Dhfr (Dihydrofolate reductase) | 1 | – | – | 6843 | 4.25e5 | inactive
dpp (decapentaplegic) | 1 | – | – | 5231 | 5.32e5 | inactive
dpp (decapentaplegic) | 2 | – | – | 5339 | 3.50e5 | inactive
dpp (decapentaplegic) | 3 | – | – | 7472 | 4.08e5 | inactive
Nmdar2 (NMDA receptor 2) | 1 | – | – | 6070 | 4.48e5 | inactive
Nmdar2 (NMDA receptor 2) | 2 | – | – | 5703 | 3.63e5 | inactive
Nmdar2 (NMDA receptor 2) | 3 | – | – | 5527 | 4.55e5 | inactive
CG14086 | 1 | – | – | 6858 | 3.96e5 | inactive
CG15657 | 1 | – | – | 6703 | 4.82e5 | inactive
Elba3 (Early boundary activity 3) | 1 | – | – | 12012 | 8.45e5 | inactive
Rpn1 (Regulatory particle non-ATPase 1) | 1 | – | – | 7696 | 1.98e5 | inactive
CG6005 | 1 | – | – | 8483 | 4.55e5 | inactive
COX4 (Cytochrome c oxidase subunit 4) | 1 | – | – | 25608 | 2.10e6 | inactive
CG30016 | 1 | – | – | 4535 | 3.17e5 | inactive
RpL14 (Ribosomal protein L14) | 1 | – | reporter ratio lowered past the hit cutoff | 8003 | 4.26e5 | inactive
Rpt2 (Regulatory particle triple-A ATPase 2) | 1 | – | – | 9884 | 3.13e5 | inactive
Rpt2 (Regulatory particle triple-A ATPase 2) | 2 | – | reporter ratio raised past the hit cutoff | – | – | active
CG13579 | 1 | – | – | 7048 | 4.35e5 | inactive
CG13577 | 1 | – | – | 5502 | 3.66e5 | inactive
Pgi (Phosphoglucose isomerase) | 1 | – | – | 6939 | 3.80e5 | inactive
Gclm (Glutamate-cysteine ligase modifier subunit) | 1 | – | – | 13642 | 3.98e5 | inactive
CG12316 | 1 | – | – | 7110 | 2.72e5 | inactive
CR12628 + Mgstl | 1 | – | – | 5760 | 4.40e5 | inactive
CR12628 + Mgstl | 2 | – | – | 5890 | 4.55e5 | inactive
NimB5 (Nimrod B5) | 1 | – | – | 7332 | 4.64e5 | inactive
CG14340 | 1 | – | – | 7594 | 3.43e5 | inactive
CG7394 | 1 | – | – | 7320 | 4.50e5 | inactive
CG8192 | 1 | – | – | 8071 | 2.38e5 | inactive
lgs (legless) | 1 | – | – | 7931 | 4.59e5 | inactive
CG31323 | 1 | – | – | 6959 | 4.15e5 | inactive
CG43325 | 1 | – | – | 6123 | 3.89e5 | inactive
NdufA3 (NADH:ubiquinone oxidoreductase subunit A3) | 1 | – | – | 5543 | 6.96e5 | inactive
CG31960 | 1 | – | – | 6046 | 3.58e5 | inactive
Syb (Synaptobrevin) | 1 | – | – | 7962 | 3.46e5 | inactive
NimC2 (Nimrod C2) | 1 | – | – | 7759 | 3.22e5 | inactive
CG8202 | 1 | – | – | 6146 | 3.76e5 | inactive
ko (knockout) | 1 | – | – | 7170 | 3.62e5 | inactive
Arp6 (Actin-related protein 6) | 1 | – | – | 7051 | 3.65e5 | inactive
CG6012 | 1 | – | – | 7347 | 3.91e5 | inactive
Cyp4p3 (Cytochrome P450 4p3) | 1 | – | – | 5834 | 3.47e5 | inactive
GstD1 (Glutathione S transferase D1) | 1 | – | – | 7122 | 4.31e5 | inactive
CG3397 | 1 | – | – | 8747 | 4.71e5 | inactive
CG3347 | 1 | – | – | 8407 | 5.05e5 | inactive
CG16837 | 1 | – | – | 7402 | 4.63e5 | inactive
Pgk (Phosphoglycerate kinase) | 1 | – | – | 7388 | 3.58e5 | inactive
Pgk (Phosphoglycerate kinase) | 2 | – | – | 4607 | 2.67e5 | inactive
trem (trade embargo) | 1 | – | – | 7351 | 4.12e5 | inactive
His4:CG33883 + His4:CG33889 + His4:CG33899 + 20 more | 1 | – | – | 5211 | 4.56e5 | inactive
futsch | 1 | – | – | 7156 | 3.80e5 | inactive
futsch | 2 | – | – | 4051 | 3.91e5 | inactive
futsch | 3 | – | – | 8513 | 4.81e5 | inactive
futsch | 4 | – | – | 6606 | 4.75e5 | inactive
Drsl4 (Drosomycin-like 4) | 1 | – | – | 5434 | 4.33e5 | inactive
CG7164 | 1 | – | – | 6891 | 4.55e5 | inactive
Ent2 (Equilibrative nucleoside transporter 2) | 1 | – | – | 24760 | 5.53e5 | inactive
fok (fledgling of Klp38B) | 1 | – | – | 7066 | 4.12e5 | inactive
CtsL4 (Cathepsin L4) | 1 | – | – | 6979 | 2.92e5 | inactive
CG32547 | 1 | – | – | 4518 | 3.51e5 | inactive
CG32547 | 2 | – | – | 4568 | 3.73e5 | inactive
CG32547 | 3 | – | – | 4867 | 3.82e5 | inactive
CG32547 | 4 | – | – | 4996 | 3.94e5 | inactive
Bili (Band4.1 inhibitor LRP interactor) | 1 | – | reporter ratio lowered past the hit cutoff | 7438 | 4.28e5 | active
Arpc4 (Actin-related protein 2/3 complex, subunit 4) | 1 | – | – | 7715 | 4.41e5 | inactive
CG13039 | 1 | – | – | 8204 | 5.51e5 | inactive
CG33263 | 1 | – | – | 6826 | 4.02e5 | inactive
fit (female-specific independent of transformer) | 1 | – | – | 9209 | 5.16e5 | inactive
Glyp (Glycogen phosphorylase) | 1 | – | – | 5875 | 5.66e5 | inactive
Eip63F-1 (Ecdysone-induced protein 63F 1) | 1 | – | – | 4387 | 2.97e5 | inactive
Eip63F-1 (Ecdysone-induced protein 63F 1) | 2 | – | – | 7447 | 4.98e5 | inactive
CG7829 | 1 | – | – | 6004 | 3.07e5 | inactive
Muc68Ca (Mucin 68Ca) | 1 | – | – | 4079 | 3.50e5 | inactive
Muc68Ca (Mucin 68Ca) | 2 | – | – | 7474 | 6.15e5 | inactive
cnir (cornichon related) | 1 | – | – | 8521 | 5.73e5 | inactive
MED26 (Mediator complex subunit 26) | 1 | – | – | 5603 | 2.28e5 | inactive
MED26 (Mediator complex subunit 26) | 2 | – | – | 4163 | 2.27e5 | inactive
MED26 (Mediator complex subunit 26) | 3 | – | – | 4555 | 1.82e5 | inactive
CG45263 | 1 | – | – | 4827 | 3.55e5 | inactive
CG45263 | 2 | – | – | 7210 | 4.09e5 | inactive
CG45263 | 3 | – | – | 7443 | 5.48e5 | inactive
CG45263 | 4 | – | – | 7487 | 5.12e5 | inactive
Stoml2 (Stomatin like 2) | 1 | – | – | 9411 | 1.95e6 | inactive
Tsen54 (tRNA splicing endonuclease subunit 54) | 1 | – | – | 6984 | 4.65e5 | inactive
CG14174 | 1 | – | – | 5223 | 2.64e5 | inactive
brn (brainiac) | 1 | – | – | 8936 | 5.84e5 | inactive
Osi18 (Osiris 18) | 1 | – | – | 6336 | 4.15e5 | inactive
mtTFB1 + Ccdc56 | 1 | – | – | 3464 | 3.39e5 | inactive
ringer (ringmaker) | 1 | – | – | 7674 | 4.63e5 | inactive
CG3630 | 1 | – | – | 8970 | 4.44e5 | inactive
bnb (bangles and beads) | 1 | – | – | 6546 | 4.43e5 | inactive
PrBP (Prenyl-binding protein) | 1 | reporter ratio raised past the hit cutoff | – | 15274 | 4.32e5 | inactive
CG10508 | 1 | – | – | 9429 | 4.88e5 | inactive
CG10508 | 2 | – | – | 6922 | 4.14e5 | inactive

Part of the list above, set out differently.
gene	reagent no.	stable siRNA reporter change	miRNA reporter change	stable assay Renilla, run 1 (luminescence)	stable assay firefly, run 1 (luminescence)	outcome
CG14086	1			6858	3.96e5	inactive
CG15657	1			6703	4.82e5	inactive
Elba3 (Early boundary activity 3)	1			12012	8.45e5	inactive
Rpn1 (Regulatory particle non-ATPase 1)	1			7696	1.98e5	inactive
CG6005	1			8483	4.55e5	inactive
COX4 (Cytochrome c oxidase subunit 4)	1			25608	2.10e6	inactive
CG30016	1			4535	3.17e5	inactive
RpL14 (Ribosomal protein L14)	1		reporter ratio lowered past the hit cutoff	8003	4.26e5	inactive
Rpt2 (Regulatory particle triple-A ATPase 2)	1			9884	3.13e5	inactive
Rpt2 (Regulatory particle triple-A ATPase 2)	2		reporter ratio raised past the hit cutoff			active
CG13579	1			7048	4.35e5	inactive
CG13577	1			5502	3.66e5	inactive
Pgi (Phosphoglucose isomerase)	1			6939	3.80e5	inactive
Gclm (Glutamate-cysteine ligase modifier subunit)	1			13642	3.98e5	inactive
CG12316	1			7110	2.72e5	inactive
